From patent publication US9113631B2, “1,3-diaryl-substituted heterocyclic pesticides” (E I DU PONT DE NEMOURS AND COMPANY, priority 2011, dated 2015)
Some entries share one result that the patent states for a list of compounds. At least one structure is not confirmed: it was looked up by name or label, or the drawing left a doubt.

Tests used:
Format in all cases: in vivo
[1] = tested on: diamondback moth (Plutella xylostella); experiment: Test A: control of diamondback moth on radish plant, foliar spray; details: neonate larvae on radish plant, 6 days, 25° C., visually assessed
[2] = tested on: fall armyworm (Spodoptera frugiperda); experiment: Test B: control of fall armyworm on maize plant, foliar spray; details: 1-day-old larvae on maize plant, 25° C., visually rated
[3] = tested on: Western Flower Thrips (Frankliniella occidentalis); experiment: Test G: control of Western Flower Thrips on Soleil bean plant, contact and/or systemic; details: adult thrips on Soleil bean plant, 7 days, 25° C.
[4] = tested on: potato leafhopper (Empoasca fabae); experiment: Test F: control of potato leafhopper on Soleil bean plant, contact and/or systemic; details: adults on Soleil bean plant, 6 days, 24° C.

Structure (SMILES)	control efficacy, very good to excellent: feeding damage (40% or less feeding damage and/or 100% mortality) ([1]; sprayed at 50 ppm)	control efficacy, very good to excellent: feeding damage (40% or less feeding damage and/or 100% mortality) ([1]; sprayed at 250 ppm)	control efficacy, very good to excellent: feeding damage (40% or less feeding damage and/or 100% mortality) ([2]; sprayed at 50 ppm)	control efficacy, very good to excellent: feeding damage (40% or less feeding damage and/or 100% mortality) ([2]; sprayed at 250 ppm)	control efficacy, very good to excellent: plant damage (40% or less plant damage and/or 100% mortality) ([3]; sprayed at 50 ppm)	control efficacy, very good to excellent: plant damage (40% or less plant damage and/or 100% mortality) ([3]; sprayed at 250 ppm)	control efficacy, very good to excellent: mortality ([4]; sprayed at 250 ppm)	control efficacy, very good to excellent: mortality ([4]; sprayed at 50 ppm)
Fc1ccccc1-c1nn(-c2ccc(OC(F)(F)F)cc2)cc1CN1CCOCC1 [Compound 211]	≤ 40%	≤ 40%	≤ 40%	≤ 40%	≤ 40%	≤ 40%	≥ 80%	–
COC(=O)C1CCN(Cc2cn(-c3ccc(OC(F)(F)F)cc3)nc2-c2c(F)cccc2F)CC1 [Compound 80]	≤ 40%	≤ 40%	–	–	–	≤ 40%	≥ 80%	–
CCOC(=O)NC1CCN(Cc2cn(-c3ccc(Cl)c(Cl)c3)nc2-c2ccccc2F)CC1 [Compound 57]	≤ 40%	≤ 40%	≤ 40%	≤ 40%	–	≤ 40%	≥ 80%	–
COC(=O)C1CCN(Cc2cn(-c3ccc(C(F)(F)F)cc3)nc2-c2ccccc2F)CC1 [Compound 50]	≤ 40%	≤ 40%	–	–	–	≤ 40%	≥ 80%	–
N#CC1CCN(Cc2cn(-c3ccc(Cl)c(F)c3)nc2-c2ccccc2Cl)CC1 [Compound 550]	≤ 40%	–	≤ 40%	–	–	–	≥ 80%	–
N#CC1CCN(Cc2cn(-c3ccc(OC(F)(F)F)cc3)nc2-c2ccc(F)cc2F)CC1 [Compound 66]	≤ 40%	≤ 40%	≤ 40%	–	–	≤ 40%	–	–
CC(=O)N(C)C1CCN(Cc2cn(-c3ccc(Cl)cc3)nc2-c2ccc(F)cc2F)CC1 [Compound 633]	≤ 40%	–	≤ 40%	–	–	–	≥ 80%	≥ 80%
Fc1ccccc1-c1nn(-c2ccc(Cl)c(Cl)c2)cc1CN1CCOCC1 [Compound 525]	≤ 40%	–	≤ 40%	–	–	–	≥ 80%	≥ 80%
CC(=O)N[C@H]1CCN(Cc2cn(-c3ccc(Cl)c(Cl)c3)nc2-c2c(F)cc(F)cc2F)C1 [Compound 842]	≤ 40%	–	≤ 40%	–	–	–	≥ 80%	–
CC(=O)N[C@H]1CCN(Cc2cn(-c3ccc(Br)cn3)nc2-c2c(F)cc(F)cc2F)C1 [Compound 900]	≤ 40%	–	≤ 40%	–	–	–	≥ 80%	–
N#CC1CCN(Cc2cn(-c3ccc(Br)cn3)nc2-c2c(F)cccc2F)CC1 [Compound 893]	≤ 40%	–	≤ 40%	–	–	–	≥ 80%	–
O=C(N[C@H]1CCN(Cc2cn(-c3ccc(Cl)c(Cl)c3)nc2-c2c(F)cc(F)cc2F)C1)C1CC1 [Compound 843]	≤ 40%	–	≤ 40%	–	–	–	≥ 80%	–
Fc1cc(F)c(-c2nn(-c3ccc(Cl)cn3)cc2CN2CCC(c3ncccn3)CC2)c(F)c1 [Compound 879]	≤ 40%	–	≤ 40%	–	–	–	≥ 80%	≥ 80%
Cc1ccccc1-c1nn(-c2ccc(Cl)c(Cl)c2)cc1CN1CCC(C#N)CC1 [Compound 86]	≤ 40%	≤ 40%	≤ 40%	≤ 40%	≤ 40%	–	–	–
